Where a chain is given by its changes, count along the chain named. In names and notes the source's numbering stands. No constants are given. Whether binding was seen depends on the method and setting. Binding can be weak; no strength is given. For some assays here: Where a sequence is shown, tags or fusion partners need not be part of it. For some assays here: In cells and extracts the contact can be indirect.

In test [1] the target is MBP-CMU1 (Arabidopsis thaliana). Description: pull-down.
For test [2], the target named is MBP-CMU2 (Arabidopsis thaliana). Nature of the test: pull-down.
Test [3] deals with MBP-CMU3 (Arabidopsis thaliana). Description: pull-down.
In test [4] the target is Full-length CMU1 fused with the DNA binding domain (BD) (Arabidopsis thaliana). Description: two-hybrid.
In test [5] the target is Full-length CMU2 fused with the DNA binding domain (BD) (Arabidopsis thaliana). Description: two-hybrid.
The target in test [6] is mCherry-CMU1 (Arabidopsis thaliana). Nature of the test: co-IP.
Test [7] addresses mCherry-CMU2 (Arabidopsis thaliana). Nature of the test: co-IP.

B1: FRA1-AA, phosphodefective FRA1 C-terminal region (T687A-T694A) (domain or fragment, UniProt Q8GS71 616-1035)
chain: ARRLQDEIQSIKAQKVQLQHRMKQEAEQFRQWKASREKELLQLRKEGRKSEYERHKLQALNQRQKMVLQRKAEEAAMAAKRLKELLEARKSSPREHSAGTNGFGTNGQTNEKSLQRWLDHELEVMVNVHEVRHEYEKQSHVRAALAEELAVLRQVDEFAVKGLSPPRGKNGFARASSLSPNARMARISSLENMLVISSNSLVAMASQLSEAEERERAFTNRGRWNQLRSMGEAKNLLQYMFNSLAETRCQLWEKDVEIKEMKDQFKEIVGLLRQSELRRKEAEKELKLREQAIATSLGTPPSSVKHVAEDLSTPSPMTVPAQKQLKFTPGIANGKVRGPAAFLDTNKKMVPMGQVSMRKLSAVGKQGGRLWRWKRSHHQWIVQFKWKWQKPWRLSEWIRTSDETLLKSKPRLKALPNKIM
Turning to B1, the binding result in test [1] and in test [2] was “binds” throughout.

B2: FRA1-DD, phosphomimetic FRA1 C-terminal region (T687D-T694D) (domain or fragment, UniProt Q8GS71 616-1035)
chain: B1 chain with A72D, A79D
For the molecule B2, the binding entry in test [1] and in test [2] was “binds” in each case.

B3: FRA1 C-terminal tail fragment (amino acids 616-1035), C-terminal 6xHis fusion (domain or fragment, Arabidopsis thaliana, UniProt Q8GS71 616-1035, looked up)
chain: B1 chain with A72T, A79T
As for B3, the binding entry in test [3], in test [1] and in test [2] was “binds” in each case.

B4: FRA1-CT (amino acids 616-1035) fused with the activation domain (AD) (domain or fragment, UniProt Q8GS71 616-1035)
chain: B1 chain with A72T, A79T
Take B4: the binding entry in test [4] and in test [5] was “binds” each time.

B5: FRA1 kinesin, endogenous full-length protein (protein, UniProt Q8GS71 1-1035)
chain: MESTPPPDDCSVKVAVHIRPLIGDERIQGCQDCVTVVTGKPQVQIGSHSFTFDHVYGSSGSPSTEMYEECAAPLVDGLFQGYNATVLAYGQTGSGKTYTMGTGCGDSSQTGIIPQVMNALFTKIETLKQQIEFQIHVSFIEIHKEEVQDLLDPCTVNKSDTNNTGHVGKVAHVPGKPPIQIRETSNGVITLAGSTEVSVSTLKEMAACLDQGSVSRATGSTNMNNQSSRSHAIFTITVEQMRKINTDSPENGAYNGSLKEEYLCAKLHLVDLAGSERAKRTGSDGLRFKEGVHINKGLLALGNVISALGDEKKRKDGAHVPYRDSKLTRLLQDSLGGNSRTVMIACISPADINAEETLNTLKYANRARNIRNKPVVNRDPVSSEMLKMRQQVEYLQAELSLRTGGSSCAEVQALKERIVWLETANEELCRELHEYRSRCPGVEHSEKDFKDIRADDIVGSVRPDGLKRSLHSIESSNYPMVEATTGDSREIDEEAKEWEHKLLQNSMDKELYELNRRLEEKESEMKLFDGYDPAALKQHFGKKIAEVEDEKRSVQEERNRLLAEIENLASDGQAQKLQDVHAQNLKALEAQILDLKKKQESQVQLLKQKQKSDDAARRLQDEIQSIKAQKVQLQHRMKQEAEQFRQWKASREKELLQLRKEGRKSEYERHKLQALNQRQKMVLQRKTEEAAMATKRLKELLEARKSSPREHSAGTNGFGTNGQTNEKSLQRWLDHELEVMVNVHEVRHEYEKQSHVRAALAEELAVLRQVDEFAVKGLSPPRGKNGFARASSLSPNARMARISSLENMLVISSNSLVAMASQLSEAEERERAFTNRGRWNQLRSMGEAKNLLQYMFNSLAETRCQLWEKDVEIKEMKDQFKEIVGLLRQSELRRKEAEKELKLREQAIATSLGTPPSSVKHVAEDLSTPSPMTVPAQKQLKFTPGIANGKVRGPAAFLDTNKKMVPMGQVSMRKLSAVGKQGGRLWRWKRSHHQWIVQFKWKWQKPWRLSEWIRTSDETLLKSKPRLKALPNKIM
As to B5, the binding entry in test [6] and in test [7] was “binds” each time.

(Values after publication doi:10.1101/760389 (bioRxiv, 2019).)
